Eight molecules from paper doi:10.1101/2024.08.15.608058 can be followed below.

Amino acid sequences for entries named in this document (tags omitted).
UniProt Q5TEA3: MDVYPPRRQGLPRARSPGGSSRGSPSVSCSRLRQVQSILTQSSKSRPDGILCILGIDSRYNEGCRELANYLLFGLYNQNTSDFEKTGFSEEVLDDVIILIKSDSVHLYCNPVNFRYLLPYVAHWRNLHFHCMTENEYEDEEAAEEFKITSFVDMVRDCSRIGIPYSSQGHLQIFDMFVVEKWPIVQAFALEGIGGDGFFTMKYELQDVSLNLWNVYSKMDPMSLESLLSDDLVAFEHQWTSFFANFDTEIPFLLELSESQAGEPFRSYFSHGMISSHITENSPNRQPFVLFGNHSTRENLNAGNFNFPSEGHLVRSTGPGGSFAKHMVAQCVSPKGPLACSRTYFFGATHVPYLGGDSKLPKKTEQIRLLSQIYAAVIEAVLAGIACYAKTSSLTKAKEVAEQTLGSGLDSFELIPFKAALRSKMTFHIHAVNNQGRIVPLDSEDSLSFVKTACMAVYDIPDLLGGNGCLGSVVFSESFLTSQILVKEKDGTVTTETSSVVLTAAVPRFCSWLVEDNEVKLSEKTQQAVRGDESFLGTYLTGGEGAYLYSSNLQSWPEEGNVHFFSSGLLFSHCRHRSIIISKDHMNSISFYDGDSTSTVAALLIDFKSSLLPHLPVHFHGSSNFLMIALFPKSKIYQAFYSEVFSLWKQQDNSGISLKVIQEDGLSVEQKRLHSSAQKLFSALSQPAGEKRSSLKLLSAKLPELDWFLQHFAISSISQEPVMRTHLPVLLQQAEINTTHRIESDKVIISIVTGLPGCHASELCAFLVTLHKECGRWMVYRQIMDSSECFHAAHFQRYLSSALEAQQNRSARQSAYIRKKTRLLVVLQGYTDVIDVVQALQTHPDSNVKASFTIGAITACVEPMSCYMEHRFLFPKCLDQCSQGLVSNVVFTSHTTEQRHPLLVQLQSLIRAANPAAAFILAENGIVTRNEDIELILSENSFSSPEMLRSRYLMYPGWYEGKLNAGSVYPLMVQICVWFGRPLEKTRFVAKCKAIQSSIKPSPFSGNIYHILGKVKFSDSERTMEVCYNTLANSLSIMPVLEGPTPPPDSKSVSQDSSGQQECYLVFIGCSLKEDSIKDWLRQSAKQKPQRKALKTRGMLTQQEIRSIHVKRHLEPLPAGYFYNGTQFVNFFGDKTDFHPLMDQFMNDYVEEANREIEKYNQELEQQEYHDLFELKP

These are yes or no findings as the source states them, for the method shown. Binding seen in cells or lysates may run through a third protein. These calls come from enrichment with a bait or labelling near it, and not all partners need be listed.

Sequences and labels used below:
B1: ODAD1 (protein, UniProt Q96M63 1-670)
chain: MEGERRAYSKEVHQRINKQLEEIRRLEEVRGDLQVQISAAQNQVKRLRDSQRLENMDRLLKGRAQVQAEIEELQEQTRALDKQIQEWETRIFTHSKNVRSPGFILDQKVKIRRRIRILENQLDRVTCHFDNQLVRNAALREELDLLRIDRNRYLNVDRKLKKEIHHLHHLVSTLILSSTSAYAVREEAKAKMGLLRERAEKEEAQSEMEAQVLQRQILHLEQLHHFLKLKNNDRQPDPDVLEKREKQAGEVAEGVWKTSQERLVLCYEDALNKLSQLMGESDPDLLVQKYLEIEERNFAEFNFINEQNLELEHVQEEIKEMQEALVSARASKDDQHLLQEQQQKVLQQRMDKVHSEAERLEARFQDVRGQLEKLKADIQLLFTKAHCDSSMIDDLLGVKTSMGDRDMGLFLSLIEKRLVELLTVQAFLHAQSFTSLADAALLVLGQSLEDLPKKMAPLQPPDTLEDPPGFEASDDYPMSREELLSQVEKLVELQEQAEAQRQKDLAAAAAKLDGTLSVDLASTQRAGSSTVLVPTRHPHAIPGSILSHKTSRDRGSLGHVTFGGLSSSTGHLPSHITHGDPNTGHVTFGSTSASSGGHVTFRPVSASSYLGSTGYVGSSRGGENTEGGVESGGTASDSSGGLGSSRDHVSSTGPASSTGPGSSTSKDSRG
B2: ENKUR (protein, UniProt Q8TC29 1-256)
chain: MDPTCSSECIYNLIPSDLKEPPQPPRYISIFKATVKDDMQKAKTAMKTMGPAKVEVPSPKDFLKKHSKEKTLPPKKNFDRNVPKKPAVPLKTDHPVMGIQSGKNFINTNAADIIMGVAKKPKPIYVDKRTGDKHDLEPSGLVPKYINKKDYGVTPEYICKRNEEIKKAQEDYDRYIQENLKKAAMKRLSDEEREAVLQGLKKNWEEVHKEFQSLSVFIDSIPKKIRKQRLEEEMKQLEHDIGIIEKHKIIYIANNA
B3: IFT81 (protein, UniProt Q8WYA0 1-676)
chain: MSDQIKFIMDSLNKEPFRKNYNLITFDSLEPMQLLQVLSDVLAEIDPKQLVDIREEMPEQTAKRMLSLLGILKYKPSGNATDMSTFRQGLVIGSKPVIYPVLHWLLQRTNELKKRAYLARFLIKLEVPSEFLQDETVADTNKQYEELMEAFKTLHKEYEQLKISGFSTAEIRKDISAMEEEKDQLIKRVEHLKKRVETAQNHQWMLKIARQLRVEKEREEYLAQQKQEQKNQLFHAVQRLQRVQNQLKSMRQAAADAKPESLMKRLEEEIKFNLYMVTEKFPKELENKKKELHFLQKVVSEPAMGHSDLLELESKINEINTEINQLIEKKMMRNEPIEGKLSLYRQQASIISRKKEAKAEELQEAKEKLASLEREASVKRNQTREFDGTEVLKGDEFKRYVNKLRSKSTVFKKKHQIIAELKAEFGLLQRTEELLKQRHENIQQQLQTMEEKKGISGYSYTQEELERVSALKSEVDEMKGRTLDDMSEMVKKLYSLVSEKKSALASVIKELRQLRQKYQELTQECDEKKSQYDSCAAGLESNRSKLEQEVRRLREECLQEESRYHYTNCMIKNLEVQLRRATDEMKAYISSDQQEKRKAIREQYTKNTAEQENLGKKLREKQKVIRESHGPNMKQAKMWRDLEQLMECKKQCFLKQQSQTSIGQVIQEGGEDRLIL
B4: ODAD4 (protein, UniProt Q96NG3 1-672)
chain: MSDPEGETLRSTFPSYMAEGERLYLCGEFSKAAQSFSNALYLQDGDKNCLVARSKCFLKMGDLERSLKDAEASLQSDPAFCKGILQKAETLYTMGDFEFALVFYHRGYKLRPDREFRVGIQKAQEAINNSVGSPSSIKLENKGDLSFLSKQAENIKAQQKPQPMKHLLHPTKGEPKWKASLKSEKTVRQLLGELYVDKEYLEKLLLDEDLIKGTMKGGLTVEDLIMTGINYLDTHSNFWRQQKPIYARERDRKLMQEKWLRDHKRRPSQTAHYILKSLEDIDMLLTSGSAEGSLQKAEKVLKKVLEWNKEEVPNKDELVGNLYSCIGNAQIELGQMEAALQSHRKDLEIAKEYDLPDAKSRALDNIGRVFARVGKFQQAIDTWEEKIPLAKTTLEKTWLFHEIGRCYLELDQAWQAQNYGEKSQQCAEEEGDIEWQLNASVLVAQAQVKLRDFESAVNNFEKALERAKLVHNNEAQQAIISALDDANKGIIRELRKTNYVENLKEKSEGEASLYEDRIITREKDMRRVRDEPEKVVKQWDHSEDEKETDEDDEAFGEALQSPASGKQSVEAGKARSDLGAVAKGLSGELGTRSGETGRKLLEAGRRESREIYRRPSGELEQRLSGEFSRQEPEELKKLSEVGRREPEELGKTQFGEIGETKKTGNEMEKEYE
B5: C1ORF87 (protein, UniProt Q8N0U7 1-546)
chain: MSSAWKTPRGSDAMPEIMVKIIGSKHFQYLVEKPKIKENDSLKTETQTMHQKPMTDNARQMSRDTPVPINFTDQQTTDNPDDVKEKKHPENNQKSENNQKLLTGANSSRFLDGNIPSQANVHCSSVPTGDQSLSYVHGIPRRKLRDWSLEQMVRGSSDQPEDIGQSPSGTTNEDAFLLALVRRELKSRPLSSNLLEKLQKELKILDPISSGFLLQSQLSRLFLKHEVPLQLPTVKILCQRFSKRGSPEMVNYEKLLWFLNSAASDYPQQNKAAADLRKTESHGTHSQSTPPQHSSSQPEVNRSLLEILKMALRTTNGRLNIDNLNLSFRKEDRSFSGCLPLPKVRAICGKHGLYLTLSLLETLLNHQDLGYQNEIKWQNFVEMLTRASSDLLSDLPTGKNEKKAPAPPMEPEVPEMSQSKTEHMKTPEEELQPESSPAETSACKDPLKPLKIRPVSQPFVNPAVKNKAEECETWIDRFRKLENALYLCDLSNTGVLEKERARRLIHNYNLIYNLSLSPQKIDQALRRFRSGENMLLEPALRYLKEL
B6: CCDC17 (protein, UniProt Q96LX7 1-622)
chain: MDSHSGEPALLPCGTCDMVFRSSALLATHTQRFCIGHPTQEMTFGAQASVATEPQRAAVVPQEHQGVPQEPQGLPDQQASRSALKRLTEEVQWLRLSLQEMRPWITEVPRVFAGPWTRSEARPQSPMSEAVGSPSERLRALFRTRARRVAEMEAQSRALQLRGEELSRRLQVVACTRGGMSRLFGLEQEIRELQAEAGRTRGALEVLGARIQELQAEPGNPLSSRREAELYSPVQKANPGTLAAEIRALREAYIRDGGRDPGVLGQIWQLQVEASALELQRSQTRRGRAGATSGELPVVEAENRRLEAEILALQMQRGRAPLGPQDLRLLGDASLQPKGRRDPPLLPPPVAPPLPPLPGFSEPQLPGTMTRNLGLDSHFLLPTSDMLGPAPYDPGAGLVIFYDFLRGLEASWIWVQLRTGLARDGRDTGRTTALPPALCLPPPPAPGPMGNCAILASRQPVPRLPPSSSVSLVCELQVWQGLAWARAPQPKAWVSLGLFDQDQRVLSGRWRLPLRALPLDPSLSLGQLNGIPQAGQAELFLRLVNARDAAVQTLAEINPASVHEYQYPPPVSSTSSLEASFLTPAVGFADPPPRTEEPLSGVKDRDEGLGPHHSSDLPPVSF
B7: CFAP57 (protein, UniProt Q96MR6 1-1250)
chain: MSAVVAQTLHVFGLRSHVANNIFYFDEQIIIFPSGNHCVKYNVDQKWQKFIPGSEKSQGMLALSISPNRRYLAISETVQEKPAITIYELSSIPCRKRKVLNNFDFQVQKFISMAFSPDSKYLLAQTSPPESNLVYWLWEKQKVMAIVRIDTQNNPVYQVSFSPQDNTQVCVTGNGMFKLLRFAEGTLKQTSFQRGEPQNYLAHTWVADDKIVVGTDTGKLFLFESGDQRWETSIMVKEPTNGSKSLDVIQESESLIEFPPVSSPLPSYEQMVAASSHSQMSMPQVFAIAAYSKGFACSAGPGRVLLFEKMEEKDFYRESREIRIPVDPQSNDPSQSDKQDVLCLCFSPSEETLVASTSKNQLYSITMSLTEISKGEPAHFEYLMYPLHSAPITGLATCIRKPLIATCSLDRSIRLWNYETNTLELFKEYQEEAYSISLHPSGHFIVVGFADKLRLMNLLIDDIRSFKEYSVRGCGECSFSNGGHLFAAVNGNVIHVYTTTSLENISSLKGHTGKIRSIVWNADDSKLISGGTDGAVYEWNLSTGKRETECVLKSCSYNCVTVSPDAKIIFAVGSDHTLKEIADSLILREISAFDVTYTAIVISHSGRMMFVGTSVGTIRAMKYPLPLQKEFNEYQAHAGPITKMLLTFDDQFLLTAAEDGCLFTWKVFDKDGRGIKREREVGFAEEVLVTKTDMEEKAQVMLELKTRVEELKMENEYQLRLKDMNYSEKIKELTDKFIQEMESLKTKNQVLRTEKEKQDVYHHEHIEDLLDKQSRELQDMECCNNQKLLLEYEKYQELQLKSQRMQEEYEKQLRDNDETKSQALEELTEFYEAKLQEKTTLLEEAQEDVRQQLREFEETKKQIEEDEDREIQDIKTKYEKKLRDEKESNLRLKGETGIMRKKFSSLQKEIEERTNDIETLKGEQMKLQGVIKSLEKDIQGLKREIQERDETIQDKEKRIYDLKKKNQELGKFKFVLDYKIKELKKQIEPRENEIRVMKEQIQEMEAELENFHKQNTQLELNITELWQKLRATDQEMRRERQKERDLEALVKRFKTDLHNCVAYIQEPRLLKEKVRGLFEKYVQRADMVEIAGLNTDLQQEYTRQREHLERNLATLKKKVVKEGELHRTDYVRIMQENVSLIKEINELRRELKFTRSQVYDLEAALKLTKKVRPQEVSETEPSRDMLSTAPTARLNEQEETGRIIEMQRLEIQRLRDQIQEQEQVTGFHTLAGVRLPSLSNSEVDLEVKTN
B8: IFT74 (protein, UniProt Q96LB3 1-600)
chain: MASNHKSSAARPVSRGGVGLTGRPPSGIRPLSGNIRVATAMPPGTARPGSRGCPIGTGGVLSSQIKVAHRPVTQQGLTGMKTGTKGPQRQILDKSYYLGLLRSKISELTTEVNKLQKGIEMYNQENSVYLSYEKRAETLAVEIKELQGQLADYNMLVDKLNTNTEMEEVMNDYNMLKAQNDRETQSLDVIFTERQAKEKQIRSVEEEIEQEKQATDDIIKNMSFENQVKYLEMKTTNEKLLQELDTLQQQLDSQNMKKESLEAEIAHSQVKQEAVLLHEKLYELESHRDQMIAEDKSIGSPMEEREKLLKQIKDDNQEIASMERQLTDTKEKINQFIEEIRQLDMDLEEHQGEMNQKYKELKKREEHMDTFIETFEETKNQELKRKAQIEANIVALLEHCSRNINRIEQISSITNQELKMMQDDLNFKSTEVQKSQSTAQNLTSDIQRLQLDLQKMELLESKMTEEQHSLKSKIKQMTTDLEIYNDLPALKSSGEEKIKKLHQERMILSTHRNAFKKIMEKQNIEYEALKTQLQENETHSQLTNLERKWQHLEQNNFAMKEFIATKSQESDYQPIKKNVTKQIAEYNKTIVDALHSTSGN

This experiment addresses DNAAF9 (human Shulin), endogenous in human airway epithelial cells (human (endogenous in HAECs)) (UniProt Q5TEA3). The experiment in a line: affinity purification with mass spectrometry.
Regarding B1, the binding result was “binds”.

Take B2: the binding result is “binds”.

For B3, the binding result is recorded as “binds”.

B4: the binding entry is given as “binds”.

For the molecule B5, the binding result was “binds”.

B6: the binding entry is listed as “binds”.

As to B7, the binding entry is on record as “binds”.

With B8, the binding result is “binds”.
